The source of these data is paper PMC11785930.

Chains of the proteins cited; added tags and fusions are not shown.
UniProt P42227: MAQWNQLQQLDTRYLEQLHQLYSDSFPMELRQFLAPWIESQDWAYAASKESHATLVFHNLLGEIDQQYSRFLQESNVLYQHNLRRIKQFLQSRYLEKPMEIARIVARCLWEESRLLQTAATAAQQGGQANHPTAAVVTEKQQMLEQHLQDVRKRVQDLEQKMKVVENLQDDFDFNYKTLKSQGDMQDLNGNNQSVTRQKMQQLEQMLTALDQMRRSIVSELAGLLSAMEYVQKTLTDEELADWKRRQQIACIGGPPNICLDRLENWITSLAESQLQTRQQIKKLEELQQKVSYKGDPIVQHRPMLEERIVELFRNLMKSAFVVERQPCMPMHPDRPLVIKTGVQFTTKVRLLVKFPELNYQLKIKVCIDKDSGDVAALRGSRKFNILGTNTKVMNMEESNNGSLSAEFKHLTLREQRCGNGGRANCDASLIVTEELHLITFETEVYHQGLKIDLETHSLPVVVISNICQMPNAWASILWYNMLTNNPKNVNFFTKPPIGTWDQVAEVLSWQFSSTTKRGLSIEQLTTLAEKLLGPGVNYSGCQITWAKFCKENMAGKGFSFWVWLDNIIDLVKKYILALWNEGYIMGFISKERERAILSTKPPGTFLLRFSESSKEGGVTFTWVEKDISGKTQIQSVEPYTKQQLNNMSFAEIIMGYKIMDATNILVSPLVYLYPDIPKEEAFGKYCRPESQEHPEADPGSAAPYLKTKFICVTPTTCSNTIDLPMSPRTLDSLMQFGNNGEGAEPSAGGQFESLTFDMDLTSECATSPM
UniProt O88597: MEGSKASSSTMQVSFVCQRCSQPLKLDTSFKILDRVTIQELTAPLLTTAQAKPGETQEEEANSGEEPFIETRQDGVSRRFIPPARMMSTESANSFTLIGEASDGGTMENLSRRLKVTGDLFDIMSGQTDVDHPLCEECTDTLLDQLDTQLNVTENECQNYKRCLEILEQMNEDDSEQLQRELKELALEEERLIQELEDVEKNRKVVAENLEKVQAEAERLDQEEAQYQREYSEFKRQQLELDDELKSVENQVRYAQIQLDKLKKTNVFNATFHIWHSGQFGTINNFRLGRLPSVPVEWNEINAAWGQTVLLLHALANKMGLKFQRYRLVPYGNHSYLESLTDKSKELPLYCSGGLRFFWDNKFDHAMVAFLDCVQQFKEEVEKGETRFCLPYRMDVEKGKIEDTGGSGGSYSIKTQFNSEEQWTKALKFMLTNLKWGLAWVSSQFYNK

These are yes or no findings as the source states them, for the method shown. For part of these data: In cells and extracts the contact can be indirect. Some results given as binding are weak or reduced against the parent protein; the word gives no strength.

In one test the target is Myc-STAT3 (UniProt P42227). In words: co-IP; Myc-STAT3 transiently expressed in 293T cells stably overexpressing FLAG-Becn1 (FL, ΔECD or ΔCCD); anti-c-Myc magnetic beads, 4°C overnight; immunoblot. For orientation: In western blotting, separated proteins are transferred to a membrane and probed.
The next test has as its target FLAG-STAT3 (UniProt P42227). In words: pull-down; FLAG-STAT3 from 293T cells adsorbed onto anti-FLAG G1 affinity resin, incubated overnight with purified His-Becn1; washed in 1x TBS; FLAG vector as control; both purified.
For test [1], the target named is Beclin 1 (Becn1), endogenous in E14.5 fetal liver cells (mouse (endogenous in E14.5 fetal liver cells)) (UniProt O88597). In words: co-IP; endogenous proteins; lysate of E14.5 fetal liver cells incubated with anti-Becn1, protein A/G agarose; immunoblot with anti-STAT3 and anti-Becn1.

“FLAG-Becn1 (FL) (from UniProt O88597 1-448)”: the binding result with Myc-STAT3 is on record as “binds”.

For the substance “His-tagged mouse Becn1 protein (from UniProt O88597 1-448)”, the binding entry in the test with FLAG-STAT3 is “binds”.

Take “STAT3, endogenous in E14.5 fetal liver cells (from UniProt P42227 1-770)”: in test [1], the binding entry was “binds”.
